Test system: alcohol preferring rats
Experiment: Alcohol Preferring Rats, Study A: Chronic Administration (14 days)
Type: in vivo, rat
Settings: gavage
Procedure: Adult male selectively-bred alcohol preferring rats were used in this study. The selectively bred alcohol preferring rats are widely used to study the suppressant effects of compounds on voluntary alcohol intake (Faren et al. 2000; Rezvani et al, 1990, 1991, 1992a, 1992b, 1999, 2000, 2002; 2003; Murphy et al, 1988; Overstreet et al., 1992, 1999; Li and McBride, 1995).
The rats were housed individually under a constant room temperature of 22±1° C. and 12:12 light-dark cycle (7:00-19:00, dark). Animals were fed Agway Prolab Rat/Mouse/Hamster 3000 formula and water ad libitum.
Alcohol intake was determined using a standard two-bottle choice method (Murphy et al. 1988; McBride et al. 1990; Rezvani et al. 1990, 1991, 1993, 1995, 1997, Rezvani et al., 2007a,b; Rezvani and Grady, 1994). Animals were first given free access to water in a graduated Richter tube for 1 day. Next, they were given access to only a solution of 10% (v/v) ethanol for 3 consecutive days. During this period the animals became accustomed to drinking from Richter tubes and to the taste and pharmacological effects of alcohol. Thereafter, the animals were given free access to both water and a solution of 10% alcohol for 4 consecutive weeks and throughout of the study. The animals continued to have free access to food. Water and alcohol intake were recorded at 6 and 24 hour.
After establishment of a reliable baseline for alcohol, and water intake, the animals were randomly assigned to a treatment regimen. The animals were administered once a day, via gavage, either vehicle (0.5% methylcellulose) or compound of formula (I-A) (at 30 mg/kg) or naltrexone (at 20 mg/kg) for 14 consecutive days. A group of 6-7 animals was used for each treatment. Alcohol and water intake was recorded at 6 hrs and 24 hrs after administration.
The results are presented as a means ±SEM. Alcohol intake (g/kg) was calculated by multiplying the volume of alcohol consumed in ml by 10% and 0.7893 (ethanol density)/body weight in kg. Alcohol preference, expressed as percentage was calculated as (volume of alcohol consumed in ml/total fluid intake in ml)×100 (Rezvani and Grady, 1994; Rezvani et al., 2007a). Statistical differences between drug-treated and control groups was determined by using ANOVA and Tukey Student's t test for multiple comparison.
The results from Study A provide a measure of whether or not the animals develop tolerance to the suppressant effects of the test compound following a chronic treatment. In Tables 5-8 below, the abbreviation “(I-A)” stands for the compound of formula (I-A), the abbreviation “Naltx” stands for naltrexone, and the abbreviation “EtOH” stands for ethanol.

SMILES: O=C1CC[C@@]2(O)[C@H]3Cc4ccc(O)c5c4[C@@]2(CCN3CC2CC2)[C@H]1O5 [Naltrexone, naltrexone, reference compound]
- Water Intake (20 mg/kg once a day, Day 1, 6 Hour Intake): 12 g/kg
- Water Intake (20 mg/kg once a day, Day 1, 24 Hour Intake): 28 g/kg
- Water Intake (20 mg/kg once a day, Day 2, 6 Hour Intake): 14 g/kg
- Water Intake (20 mg/kg once a day, Day 2, 24 Hour Intake): 29 g/kg
- Water Intake (20 mg/kg once a day, Day 3, 6 Hour Intake): 12 g/kg
- Water Intake (20 mg/kg once a day, Day 3, 24 Hour Intake): 30 g/kg
- Water Intake (20 mg/kg once a day, Day 4, 6 Hour Intake): 9 g/kg
- Water Intake (20 mg/kg once a day, Day 4, 24 Hour Intake): 21 g/kg
- Water Intake (20 mg/kg once a day, Day 5, 6 Hour Intake): 9 g/kg
- Water Intake (20 mg/kg once a day, Day 5, 24 Hour Intake): 18 g/kg
- Water Intake (20 mg/kg once a day, Day 6, 6 Hour Intake): 5 g/kg
- Water Intake (20 mg/kg once a day, Day 6, 24 Hour Intake): 36 g/kg
- Water Intake (20 mg/kg once a day, Day 7, 6 Hour Intake): 5 g/kg
- Water Intake (20 mg/kg once a day, Day 7, 24 Hour Intake): 14 g/kg
- Water Intake (20 mg/kg once a day, Day 8, 6 Hour Intake): 3 g/kg
- Water Intake (20 mg/kg once a day, Day 8, 24 Hour Intake): 13 g/kg
- Water Intake (20 mg/kg once a day, Day 9, 6 Hour Intake): 4 g/kg
- Water Intake (20 mg/kg once a day, Day 9, 24 Hour Intake): 10 g/kg
- Water Intake (20 mg/kg once a day, Day 10, 6 Hour Intake): 4 g/kg
- Water Intake (20 mg/kg once a day, Day 10, 24 Hour Intake): 13 g/kg
- Water Intake (20 mg/kg once a day, Day 11, 6 Hour Intake): 1 g/kg
- Water Intake (20 mg/kg once a day, Day 11, 24 Hour Intake): 1 g/kg
- Water Intake (20 mg/kg once a day, Day 12, 6 Hour Intake): 2 g/kg
- Water Intake (20 mg/kg once a day, Day 12, 24 Hour Intake): 2 g/kg
- Water Intake (20 mg/kg once a day, Day 13, 6 Hour Intake): 4 g/kg
- Water Intake (20 mg/kg once a day, Day 13, 24 Hour Intake): 4 g/kg
- Water Intake (20 mg/kg once a day, Day 14, 6 Hour Intake): 3 g/kg
- Water Intake (20 mg/kg once a day, Day 14, 24 Hour Intake): 10 g/kg

SMILES: Cc1cccc2cccc(CN3CCC4(CC3)C(=O)N(C[C@H](O)CN)CN4c3ccc(F)cc3)c12 [Cmpd (I-A), 3-(3-amino-2-(R)-hydroxy-propyl)-1-(4-fluoro-phenyl)-8-(8-methyl-naphthalen-1-ylmethyl)-1,3,8-triazaspiro[4.5]decan-4-one]
- Water Intake (30 mg/kg once a day, Day 1, 6 Hour Intake): 10 g/kg
- Water Intake (30 mg/kg once a day, Day 1, 24 Hour Intake): 19 g/kg
- Water Intake (30 mg/kg once a day, Day 2, 6 Hour Intake): 19 g/kg
- Water Intake (30 mg/kg once a day, Day 2, 24 Hour Intake): 32 g/kg
- Water Intake (30 mg/kg once a day, Day 3, 6 Hour Intake): 16 g/kg
- Water Intake (30 mg/kg once a day, Day 3, 24 Hour Intake): 29 g/kg
- Water Intake (30 mg/kg once a day, Day 4, 6 Hour Intake): 15 g/kg
- Water Intake (30 mg/kg once a day, Day 4, 24 Hour Intake): 31 g/kg
- Water Intake (30 mg/kg once a day, Day 5, 6 Hour Intake): 28 g/kg
- Water Intake (30 mg/kg once a day, Day 5, 24 Hour Intake): 37 g/kg
- Water Intake (30 mg/kg once a day, Day 6, 6 Hour Intake): 13 g/kg
- Water Intake (30 mg/kg once a day, Day 6, 24 Hour Intake): 25 g/kg
- Water Intake (30 mg/kg once a day, Day 7, 6 Hour Intake): 11 g/kg
- Water Intake (30 mg/kg once a day, Day 7, 24 Hour Intake): 16 g/kg
- Water Intake (30 mg/kg once a day, Day 8, 6 Hour Intake): 12 g/kg
- Water Intake (30 mg/kg once a day, Day 8, 24 Hour Intake): 23 g/kg
- Water Intake (30 mg/kg once a day, Day 9, 6 Hour Intake): 10 g/kg
- Water Intake (30 mg/kg once a day, Day 9, 24 Hour Intake): 22 g/kg
- Water Intake (30 mg/kg once a day, Day 10, 6 Hour Intake): 6 g/kg
- Water Intake (30 mg/kg once a day, Day 10, 24 Hour Intake): 12 g/kg
- Water Intake (30 mg/kg once a day, Day 11, 6 Hour Intake): 9 g/kg
- Water Intake (30 mg/kg once a day, Day 11, 24 Hour Intake): 9 g/kg
- Water Intake (30 mg/kg once a day, Day 12, 6 Hour Intake): 17 g/kg
- Water Intake (30 mg/kg once a day, Day 12, 24 Hour Intake): 17 g/kg
- Water Intake (30 mg/kg once a day, Day 13, 6 Hour Intake): 13 g/kg
- Water Intake (30 mg/kg once a day, Day 13, 24 Hour Intake): 13 g/kg
- Water Intake (30 mg/kg once a day, Day 14, 6 Hour Intake): 16 g/kg
- Water Intake (30 mg/kg once a day, Day 14, 24 Hour Intake): 28 g/kg

Reference: patent publication US20080200492A1, “METHODS FOR THE TREATMENT OF ALCOHOL ABUSE, ADDICTION AND DEPENDENCY” (priority 2006, published 2008)
